Here are results for three molecules from PMC6770463.

Chains of the proteins cited; added tags and fusions are not shown.
UniProt Q07666: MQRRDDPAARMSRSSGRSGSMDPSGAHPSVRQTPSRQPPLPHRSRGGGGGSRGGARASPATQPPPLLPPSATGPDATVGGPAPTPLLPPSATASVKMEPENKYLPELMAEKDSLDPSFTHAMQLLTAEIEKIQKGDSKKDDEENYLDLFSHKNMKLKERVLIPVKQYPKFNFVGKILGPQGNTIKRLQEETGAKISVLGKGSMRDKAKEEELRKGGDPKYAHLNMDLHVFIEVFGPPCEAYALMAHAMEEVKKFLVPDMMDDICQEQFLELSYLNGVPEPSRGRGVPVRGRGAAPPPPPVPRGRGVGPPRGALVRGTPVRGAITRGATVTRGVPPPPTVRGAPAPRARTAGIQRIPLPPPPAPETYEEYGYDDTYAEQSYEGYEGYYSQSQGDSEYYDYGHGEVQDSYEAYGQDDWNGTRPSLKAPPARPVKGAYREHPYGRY

These are yes or no findings as the source states them, for the method shown. For some of these results: Binding seen in cells or lysates may run through a third protein. Some entries that bind do so weakly or less than the wild type.

The target of test [1] is T1, pLexA-DIR-metadherin-aa73-582 (UniProt Q86UE4).
T1 sequence: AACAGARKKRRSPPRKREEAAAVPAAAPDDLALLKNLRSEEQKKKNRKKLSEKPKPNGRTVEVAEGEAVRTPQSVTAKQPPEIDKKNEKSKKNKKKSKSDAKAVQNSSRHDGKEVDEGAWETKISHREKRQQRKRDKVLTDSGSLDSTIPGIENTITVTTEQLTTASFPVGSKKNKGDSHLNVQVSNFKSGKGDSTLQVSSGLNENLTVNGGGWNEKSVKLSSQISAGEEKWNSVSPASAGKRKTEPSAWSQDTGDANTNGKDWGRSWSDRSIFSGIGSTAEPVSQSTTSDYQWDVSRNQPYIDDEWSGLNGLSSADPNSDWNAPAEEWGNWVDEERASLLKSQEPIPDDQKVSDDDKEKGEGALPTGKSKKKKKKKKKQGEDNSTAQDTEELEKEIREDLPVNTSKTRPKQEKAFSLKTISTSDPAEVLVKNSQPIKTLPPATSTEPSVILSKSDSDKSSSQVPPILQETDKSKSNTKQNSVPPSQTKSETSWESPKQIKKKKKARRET
The test can be described thus: two-hybrid; bait pLexA-DIR-metadherin-aa73-582, prey a human placental cDNA library; beta-galactosidase assay; done by Dualsystems Biotech AG.

Test [2] concerns the target T2, endogenous metadherin (LNCaP) (human (endogenous in LNCaP)) (UniProt Q86UE4).
T2 sequence: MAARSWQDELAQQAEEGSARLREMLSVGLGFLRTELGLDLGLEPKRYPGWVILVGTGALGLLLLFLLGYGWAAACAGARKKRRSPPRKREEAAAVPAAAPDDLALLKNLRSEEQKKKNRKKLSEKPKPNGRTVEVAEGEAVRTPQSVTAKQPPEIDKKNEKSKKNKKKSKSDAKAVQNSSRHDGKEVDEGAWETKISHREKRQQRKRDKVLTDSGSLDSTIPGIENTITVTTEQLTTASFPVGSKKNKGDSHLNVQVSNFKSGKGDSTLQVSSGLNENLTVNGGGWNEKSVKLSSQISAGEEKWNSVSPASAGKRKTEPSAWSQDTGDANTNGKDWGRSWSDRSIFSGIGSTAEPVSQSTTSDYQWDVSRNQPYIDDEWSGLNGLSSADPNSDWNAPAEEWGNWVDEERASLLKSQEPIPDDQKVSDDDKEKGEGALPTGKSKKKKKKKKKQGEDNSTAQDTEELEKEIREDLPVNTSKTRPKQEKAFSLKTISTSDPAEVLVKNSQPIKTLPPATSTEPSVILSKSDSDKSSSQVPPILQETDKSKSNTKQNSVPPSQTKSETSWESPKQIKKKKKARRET
As to the kind of experiment: co-IP; endogenous metadherin precipitated from 1 mg LNCaP whole cell lysate, 4 °C; rabbit IgG as negative control.

Test [3] concerns the target endogenous Sam68 (LNCaP) (human (endogenous in LNCaP)) (UniProt Q07666). The test can be described thus: co-IP; endogenous SAM68 precipitated with an anti-SAM68 antibody from 1 mg LNCaP protein lysate, 4 °C; rabbit IgG as negative control.

On to “YTHDC1 aa54-355 (clone from the human placental cDNA library) (from UniProt Q96MU7 54-355) (domain or fragment)”, for which, in test [1], the binding result was “binds”.

B1: endogenous T-STAR (LNCaP) (protein, UniProt O75525 1-346)
chain: MEEKYLPELMAEKDSLDPSFTHALRLVNQEIEKFQKGEGKDEEKYIDVVINKNMKLGQKVLIPVKQFPKFNFVGKLLGPRGNSLKRLQEETLTKMSILGKGSMRDKAKEEELRKSGEAKYFHLNDDLHVLIEVFAPPAEAYARMGHALEEIKKFLIPDYNDEIRQAQLQELTYLNGGSENADVPVVRGKPTLRTRGVPAPAITRGRGGVTARPVGVVVPRGTPTPRGVLSTRGPVSRGRGLLTPRARGVPPTGYRPPPPPPTQETYGEYDYDDGYGTAYDEQSYDSYDNSYSTPAQSGADYYDYGHGLSEETYDSYGQEEWTNSRHKAPSARTAKGVYRDQPYGRY
For B1, the binding entry in test [2] and in test [3] was “binds” each time.

B2: endogenous metadherin (LNCaP) (protein, UniProt Q86UE4 1-582)
chain: T2 sequence
In the case of B2, the binding result in test [3] is reported as “binds”.
